Experimental data taken from article PMC11264951.
Results are given in words; binding and its absence hold for the method and conditions named. Binding seen in cells or lysates may run through a third protein.

Sequences of proteins named here, by UniProt entry; tags and fusion partners are left off.
UniProt Q8JZQ9: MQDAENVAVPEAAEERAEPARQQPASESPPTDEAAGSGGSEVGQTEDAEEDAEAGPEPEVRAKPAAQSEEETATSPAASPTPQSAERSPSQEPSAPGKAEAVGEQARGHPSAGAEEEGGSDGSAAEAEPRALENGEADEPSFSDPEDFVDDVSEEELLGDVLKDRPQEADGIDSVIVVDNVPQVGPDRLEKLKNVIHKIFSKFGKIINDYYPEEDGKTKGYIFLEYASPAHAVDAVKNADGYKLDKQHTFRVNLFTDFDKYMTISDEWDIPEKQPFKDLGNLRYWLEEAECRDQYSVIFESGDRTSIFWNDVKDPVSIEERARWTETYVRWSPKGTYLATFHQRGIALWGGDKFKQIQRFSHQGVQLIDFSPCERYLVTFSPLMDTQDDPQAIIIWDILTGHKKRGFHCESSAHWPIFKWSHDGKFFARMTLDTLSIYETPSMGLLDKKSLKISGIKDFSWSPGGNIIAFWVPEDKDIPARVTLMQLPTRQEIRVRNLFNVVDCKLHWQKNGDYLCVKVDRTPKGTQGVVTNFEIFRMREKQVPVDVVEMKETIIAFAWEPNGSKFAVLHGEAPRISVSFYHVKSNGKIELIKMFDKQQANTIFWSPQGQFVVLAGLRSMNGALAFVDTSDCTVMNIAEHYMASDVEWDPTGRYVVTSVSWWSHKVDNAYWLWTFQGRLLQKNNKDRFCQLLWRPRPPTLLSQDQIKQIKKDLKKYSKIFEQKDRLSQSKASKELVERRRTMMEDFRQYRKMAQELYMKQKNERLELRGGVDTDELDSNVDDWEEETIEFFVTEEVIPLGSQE

Biological target: T1, methyltransferase-like protein 16 (METTL16) (mouse (endogenous in P10 testes)) (UniProt Q9CQG2)
T1 sequence: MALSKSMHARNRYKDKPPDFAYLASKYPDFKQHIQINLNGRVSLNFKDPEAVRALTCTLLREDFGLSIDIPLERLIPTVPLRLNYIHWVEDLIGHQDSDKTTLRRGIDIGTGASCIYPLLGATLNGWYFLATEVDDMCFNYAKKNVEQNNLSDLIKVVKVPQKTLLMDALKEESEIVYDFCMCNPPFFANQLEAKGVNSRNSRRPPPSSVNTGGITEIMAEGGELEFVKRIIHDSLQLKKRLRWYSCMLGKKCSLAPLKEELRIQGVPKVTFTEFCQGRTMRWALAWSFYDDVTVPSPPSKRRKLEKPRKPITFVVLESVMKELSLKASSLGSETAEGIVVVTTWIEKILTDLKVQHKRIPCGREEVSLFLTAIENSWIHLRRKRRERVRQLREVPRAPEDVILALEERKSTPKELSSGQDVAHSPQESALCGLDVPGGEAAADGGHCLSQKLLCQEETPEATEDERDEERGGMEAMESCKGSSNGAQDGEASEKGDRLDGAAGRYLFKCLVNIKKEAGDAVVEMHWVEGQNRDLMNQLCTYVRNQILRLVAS
Experiment: co-IP; Co-IP applied to the mouse testes; told only in the discussion, no figure cited

- binding: no binding
Substance: eIF3B (from UniProt Q8JZQ9 1-803)
